Source: ChEMBL document CHEMBL3988442, “University of Dundee, Small-Polar-MMV Screening Library” (2021).

Amino acid sequences for entries named in this document (tags omitted).
UniProt E9BF75, entry or part of it: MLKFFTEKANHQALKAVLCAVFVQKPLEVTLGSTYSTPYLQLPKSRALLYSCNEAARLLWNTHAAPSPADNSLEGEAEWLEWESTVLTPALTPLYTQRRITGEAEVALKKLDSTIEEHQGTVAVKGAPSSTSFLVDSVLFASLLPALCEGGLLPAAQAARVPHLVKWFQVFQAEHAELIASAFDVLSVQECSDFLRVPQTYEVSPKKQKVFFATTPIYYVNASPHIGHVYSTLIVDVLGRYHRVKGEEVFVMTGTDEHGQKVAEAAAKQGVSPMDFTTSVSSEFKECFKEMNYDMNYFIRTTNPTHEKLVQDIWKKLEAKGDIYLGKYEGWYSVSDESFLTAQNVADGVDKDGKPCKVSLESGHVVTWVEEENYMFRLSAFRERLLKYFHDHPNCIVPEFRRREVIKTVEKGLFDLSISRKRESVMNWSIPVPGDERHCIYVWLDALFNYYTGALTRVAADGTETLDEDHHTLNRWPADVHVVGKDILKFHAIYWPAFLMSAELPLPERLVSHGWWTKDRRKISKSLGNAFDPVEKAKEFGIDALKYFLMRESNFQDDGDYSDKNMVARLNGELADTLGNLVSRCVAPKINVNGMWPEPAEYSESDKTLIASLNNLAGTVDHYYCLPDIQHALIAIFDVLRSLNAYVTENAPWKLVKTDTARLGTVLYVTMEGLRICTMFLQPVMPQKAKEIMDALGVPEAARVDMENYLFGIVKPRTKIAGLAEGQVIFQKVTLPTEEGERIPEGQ

LdMetRS: 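Primary screen of methionyl-tRNA synthetase; the read-out is not stated. Target: Methionyl-tRNA synthetase (putative), Leishmania donovani (UniProt E9BF75). The test concentration is not given. Values are per cent inhibition. Size under these conditions: about 68,000 compounds, about 24 of them at 50% or above in at least one test.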
Mtb heat-shock: 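Assay on Mycobacterium tuberculosis, filed only as a heat shock assay from Cornell; the read-out is not stated. The concentration is filed as 10 mM, unlikely as a test dose, so the dose is not known. The record gives no direction; compounds that gave an IC50 in retests scored well above the rest, so higher reads as stronger inhibition. About 69,000 compounds were tested under these conditions; 1.4% (about 930) showed 50% or more at least once.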

All values are in %. The record does not define 0% and 100%; most values in the screen are far below 50% and negative numbers occur (in some assays of this library far below -100). The compounds are a random part of those screened.

{"smiles": "O=C(c1ccc(Cn2ccccc2=O)o1)N1CCC2(CC1)OCCO2", "LdMetRS": 9.206, "Mtb heat-shock": 1.453}
{"smiles": "CC1(NC(=O)Cc2csc(-c3ccccc3Cl)n2)CCS(=O)(=O)C1", "stereo": "centres unmarked", "LdMetRS": 20.36, "Mtb heat-shock": -28.58}
{"smiles": "COc1cc(CN[C@@H]2COC[C@H]2Cc2cc(C)no2)cc(OC)c1", "LdMetRS": 18.12}
{"smiles": "CNC(=O)c1cc(NC(=O)Nc2cnn(CC(C)C)c2)ccc1F", "LdMetRS": 20.95, "Mtb heat-shock": 1.963}
{"smiles": "COc1ccc(CN2CCOC[C@H](OCc3ccccc3)C2)cc1", "LdMetRS": 10.53, "Mtb heat-shock": -26.16}
{"smiles": "COCCNC(=O)C1CN(Cc2nccs2)Cc2ccnn2C1.O=C(O)C(F)(F)F.O=C(O)C(F)(F)F", "stereo": "centres unmarked", "Mtb heat-shock": 0.869}
{"smiles": "CN1CCC/C1=N\\S(=O)(=O)c1ccc(NC(=O)c2ccco2)cc1", "LdMetRS": 3.825, "Mtb heat-shock": -0.9327}
{"smiles": "Cc1cnccc1CN(C)C(=O)c1ccc(Cn2cnnn2)cc1", "LdMetRS": 2.484, "Mtb heat-shock": -21.46}
{"smiles": "CCCC(C)NC(=O)c1ccc(-c2ccco2)[nH]c1=O", "stereo": "centres unmarked", "LdMetRS": 9.582, "Mtb heat-shock": 2.047}
{"smiles": "CC(C)c1nc(CN2CCCC(Cn3cncn3)C2)cs1", "stereo": "centres unmarked", "LdMetRS": 8.896, "Mtb heat-shock": -10.78}
{"smiles": "O=C(NC1CC1)c1cc(NC(=O)N2CCOCC2)ccc1Cl", "LdMetRS": 16.43, "Mtb heat-shock": 18.84}
{"smiles": "CC(C)(CNC(=O)C1(c2ccccc2)CCOCC1)C(=O)O", "LdMetRS": 9.021, "Mtb heat-shock": 3.453}
{"smiles": "CN1CCc2[nH]nc(C(=O)N3CCCC4(CN(C)C(=O)O4)C3)c2C1", "stereo": "centres unmarked", "LdMetRS": 8.462, "Mtb heat-shock": -1.022}
{"smiles": "O=C(CN(Cc1ccccc1)CC1CCOCC1)NC(=O)NC1CC1", "LdMetRS": 6.5, "Mtb heat-shock": -33.98}
{"smiles": "CCN1CC(C(=O)NCc2ccc3c(c2)nc(C)n3C)CCC1=O", "stereo": "centres unmarked", "LdMetRS": 17.31, "Mtb heat-shock": 19.47}
{"smiles": "Cc1cc(OCC(=O)N2CCCC(c3noc(C(C)C)n3)C2)no1", "stereo": "centres unmarked", "LdMetRS": 6.647, "Mtb heat-shock": -2.585}
{"smiles": "COc1ccc(C(=O)N2CCOCC2c2ccc(C)o2)cc1", "stereo": "centres unmarked", "LdMetRS": 19.63, "Mtb heat-shock": -22.04}
{"smiles": "Nc1no[n+]([O-])c1C(=O)NCc1ccco1", "LdMetRS": 2.795, "Mtb heat-shock": 13.32}
{"smiles": "Cc1ccc2c(n1)N(CCN(C)C)CCN(C(=O)c1cscn1)C2.O=C(O)C(F)(F)F.O=C(O)C(F)(F)F", "Mtb heat-shock": 2.758}
{"smiles": "O=C(O)CCc1cc2n(n1)CCN(Cc1ccc3[nH]ccc3c1)C2", "LdMetRS": 19.4, "Mtb heat-shock": -4.004}
{"smiles": "CCC1CCCCCN1C(=O)c1nnc2ccccc2c1N", "stereo": "centres unmarked", "LdMetRS": 5.634, "Mtb heat-shock": -28.37}
{"smiles": "[H][C@]12CCCCN1CCC[C@H]2CNC(=O)Cn1ccc2cc(Br)ccc21", "Mtb heat-shock": -1.982}
{"smiles": "O=C(C1CCSCC1)N1CCC2(CC1)COC(COCC1CC1)C2", "stereo": "centres unmarked", "LdMetRS": 10.1, "Mtb heat-shock": -11.43}
{"smiles": "CN(C)C(=O)CN1CCOCC2(CCN(CC3CCOC3)CC2)C1", "stereo": "centres unmarked", "LdMetRS": 0.346}
{"smiles": "[H][C@@]12CCN(c3cc(OC)ncn3)C[C@]1(COc1nccc(C)n1)CCO2", "Mtb heat-shock": -29.38}

Once more, the final 2:

CN(C)C(=O)CN1CCOCC2(CCN(CC3CCOC3)CC2)C1 (centres unmarked) gave LdMetRS: 0.346%.
[H][C@@]12CCN(c3cc(OC)ncn3)C[C@]1(COc1nccc(C)n1)CCO2 gave Mtb heat-shock: -29.38%.